PubChem BioAssay AID2417 (National Center for Advancing Translational Sciences (NCATS), 2010)
The whole screen tested about 140,000 compounds, of which about 4,300 (3.1%) were called active. The inconclusive results got no clear call from the source; some entries with a clear call stand among them for comparison.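 The calls were made as follows: active = readout at or below -70, meaning at least 70% loss of cells showing the perinucleolar compartment, a nuclear body marking cancer cells; inconclusive = readout between -30 and a set limit; inactive = the rest.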

Experiment: High Content Assay for Compounds that inhibit the Assembly of the Perinucleolar Compartment;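 also: plate controls were DMSO wells for no effect and camptothecin positive control wells for full effect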
Conditions: PC3M PTB-GFP, PNC prevalence imaging, 16 h; at 10 µM; stronger effect = lower value
Outline: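 PC3M cells stably expressing PTB-GFP, 750–1000 cells/well, treated 16 h at 37 °C with compound (23 nl of library stock), in duplicate. After paraformaldehyde fixation and Hoechst stain, imaged at 20x; PNC prevalence scored by image analysis.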

SMILES | activity change (PNC), negative = inhibition
COc1ccc(N2CCN(C(c3cc4cc(C)ccc4[nH]c3=O)c3nnnn3Cc3ccccc3)CC2)cc1 (centres undefined) | inconclusive: -59.2%
O=C(CCOc1ccccc1)N1CCN(S(=O)(=O)c2cccs2)CC1 | inconclusive: -39%
CC(NC(=O)c1ccc(S(=O)(=O)N(C)C)cc1)c1ccccc1 (centres undefined) | inconclusive: -76.2%
Cc1ccc2nc(NC(=S)NC(=O)c3ccc(OC(C)C)cc3)sc2c1 | inactive: 14.8%
CCCC(=O)c1c(C)c2ccccc2n1C | inactive: -13.7%
O=c1c2ccccc2n(Cc2ccc(F)cc2)c(=O)n1C1CCCC1 | inconclusive: -36.7%
CN(Cc1ccccc1)C(=O)Cn1nc(C(F)(F)F)c2c1CCC2 | inactive: 9.53%
O=C(N1CCOCC1)N1CCN(c2ccc(F)cc2)CC1 | inconclusive: -33.2%
COc1ccc(NC(=O)CSC2=NC(=O)CC(C)=N2)cc1 | inconclusive: -36.7%
Cc1coc(C)c1C(=O)CC1(O)C(=O)N(CCc2ccccc2)c2ccccc21 (centres undefined) | inactive: 22.1%
COc1ccc(/C=C2\NC(=S)N(CC3CCCO3)C2=O)c(OC)c1C (centres undefined) | inactive: 16.4%
COC(=O)c1cccc(NC(=O)Cc2coc3cc(OC)ccc23)c1 | inconclusive: -35.6%
O=C(NC(O)C(=O)c1ccccc1)c1cccs1 (centres undefined) | inactive: -3.41%
CCC(/C=N/NC(=O)C(N)=O)CC | inconclusive: -45.1%
Cc1ccc(NC(=S)N(CCCN2CCOCC2)Cc2cccs2)c(C)c1 | inconclusive: -30.8%
CCN(CC)c1ccc(NC(=O)c2cccc(OC)c2)c(C)c1 | inconclusive: -66.4%
CC1(C)Cc2c(ccc3ccccc23)C(=O)N1 | inactive: 54.4%
O=C(NC1CCCc2ccccc21)c1cccnc1 (centres undefined) | inactive: -24.1%
CCOc1ccc(N2C(=O)CN(C)C2=S)cc1 | inactive: 27.8%
COc1ccc2oc(=O)c(C(=O)N3c4ccccc4CC3C)cc2c1 (centres undefined) | inconclusive: -55.5%
CCOC(=O)c1sc(NC(=O)CSc2nc3c(c(=O)n2-c2ccccc2)SCC3)c(C(=O)OCC)c1C | inconclusive: -41.1%
O=[N+]([O-])c1ccc(Cl)c(CN2CCC(O)CC2)c1 | active: -124%

An excerpt from above in order of count of non-hydrogen atoms, ascending.
SMILES | activity change (PNC), negative = inhibition
O=[N+]([O-])c1ccc(Cl)c(CN2CCC(O)CC2)c1 | active: -124%
Cc1coc(C)c1C(=O)CC1(O)C(=O)N(CCc2ccccc2)c2ccccc21 (centres undefined) | inactive: 22.1%
CCOC(=O)c1sc(NC(=O)CSc2nc3c(c(=O)n2-c2ccccc2)SCC3)c(C(=O)OCC)c1C | inconclusive: -41.1%

The listing continues.

SMILES | activity change (PNC), negative = inhibition
CCN1C/C(=C/c2ccc(N3CCOCC3)cc2)C(=O)/C(=C/c2ccc(N3CCOCC3)cc2)C1 | inconclusive: -35.8%
CC(C)(C)NC(=O)C(c1c[nH]c2ccccc12)N(C(=O)Cn1nnc(-c2ccc(Cl)cc2)n1)c1ccccc1F (centres undefined) | inconclusive: -40.8%
O=C(Cn1cc2c(n1)CCCC2)NCc1cccs1 | inactive: 7.41%
CCCc1cc(N2CCCC(C(=O)NCc3ccc4c(c3)OCO4)C2)n2ncnc2n1 (centres undefined) | inconclusive: -45.1%
COc1ccc(CNCC(O)(c2ccccc2)c2ccc(Cl)cc2)cc1 (centres undefined) | inconclusive: -63.4%
C=CCNC(=S)NNc1nc2c(c(=O)[nH]1)C1(CCCCC1)Cc1ccccc1-2 | inactive: -13.1%
COc1ccc(NC(=O)c2cc(SC)ccc2Cl)cc1 | inactive: 5.46%
C=CCn1c(Cc2cccs2)nnc1SCC(=O)c1ccc2ccccc2c1 | inconclusive: -34%
COc1cc2c(cc1OC)C(c1ccccc1)N(C(=O)CCl)CC2 (centres undefined) | inactive: 62.4%
COc1ccccc1NC(=O)N(Cc1ccco1)Cc1cc2c(C)ccc(C)c2[nH]c1=O | inactive: 28.3%
C[C@@H](C(=O)N[C@H](C(=O)O)c1ccccc1)n1nnc2ccccc2c1=O | active: -112%
CCCCc1noc2c1/C(=N\O)CC(c1ccccc1)C2 (centres undefined) | inactive: -2.59%
CCOC(=O)Cn1c(CN2CCN(C(c3ccccc3)c3ccccc3)CC2)nc2c1c(=O)n(C)c(=O)n2C | inconclusive: -45.7%
COc1cc(SC#N)ccc1N=Cc1c(C)[nH]n(-c2ccc(Cl)cc2)c1=O | inactive: 23%
Cc1onc(-c2ccccc2Cl)c1C(=O)Nc1nnc(-c2ccc(F)cc2)s1 | inactive: 35.5%
C/C(=N/NC(=O)c1ccoc1C)c1cccc(NC(=O)C2CC2)c1 | inconclusive: -32.4%
O=C(CCNS(=O)(=O)c1ccc(Cl)cc1)N1CCN(Cc2ccccc2)CC1 | inconclusive: -50.4%
COCCN(C(=O)CNC(=O)c1ccco1)C(C(=O)NC1CCCC1)c1cccs1 (centres undefined) | active: -100%
COc1cc(/C=N/n2cnnc2)ccc1OS(=O)(=O)c1ccccc1[N+](=O)[O-] | inconclusive: -46.8%
O=C(CSc1nc(-c2cccs2)cc(C(F)(F)F)n1)NCCCn1ccnc1 | inconclusive: -66.6%
COc1ccc([N+](=O)[O-])cc1NCc1ccccc1 | inconclusive: -43.9%
O=C(Cn1nc(-c2ccccc2F)ccc1=O)Nc1ccc(S(=O)(=O)N2CCCCCC2)cc1 | inactive: 8.96%
